Data taken from ChEMBL document CHEMBL3988442, “University of Dundee, Small-Polar-MMV Screening Library” (2021).

Chains of the proteins cited; added tags and fusions are not shown. Residues count along the entry.
UniProt P9WNZ1, whole entry: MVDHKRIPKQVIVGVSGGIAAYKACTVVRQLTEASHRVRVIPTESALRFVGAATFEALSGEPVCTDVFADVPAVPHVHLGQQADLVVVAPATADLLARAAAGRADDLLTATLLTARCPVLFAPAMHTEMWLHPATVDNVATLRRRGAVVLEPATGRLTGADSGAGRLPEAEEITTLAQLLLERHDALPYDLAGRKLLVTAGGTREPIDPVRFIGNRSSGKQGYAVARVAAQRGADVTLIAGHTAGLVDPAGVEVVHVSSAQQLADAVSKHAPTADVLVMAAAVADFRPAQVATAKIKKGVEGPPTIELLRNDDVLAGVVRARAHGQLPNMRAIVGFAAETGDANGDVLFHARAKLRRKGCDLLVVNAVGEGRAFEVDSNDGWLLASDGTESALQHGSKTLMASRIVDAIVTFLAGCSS
UniProt P9WFT3, whole entry: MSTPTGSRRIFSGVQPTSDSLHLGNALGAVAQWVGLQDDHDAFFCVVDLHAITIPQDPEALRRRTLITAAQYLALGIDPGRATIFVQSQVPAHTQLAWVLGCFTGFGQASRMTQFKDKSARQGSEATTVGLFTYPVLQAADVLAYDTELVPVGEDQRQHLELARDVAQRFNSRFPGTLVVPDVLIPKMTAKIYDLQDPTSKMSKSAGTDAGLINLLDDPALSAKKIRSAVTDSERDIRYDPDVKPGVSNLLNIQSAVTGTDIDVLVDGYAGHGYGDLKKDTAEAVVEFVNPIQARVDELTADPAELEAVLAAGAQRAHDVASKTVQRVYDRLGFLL
UniProt P9WPC5, whole entry: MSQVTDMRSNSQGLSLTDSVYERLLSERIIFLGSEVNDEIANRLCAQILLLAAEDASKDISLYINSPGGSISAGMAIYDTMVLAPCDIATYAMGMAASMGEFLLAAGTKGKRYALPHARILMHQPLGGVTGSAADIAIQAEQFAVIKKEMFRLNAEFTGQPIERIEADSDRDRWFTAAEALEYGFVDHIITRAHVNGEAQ
UniProt P9WPC3, whole entry partner: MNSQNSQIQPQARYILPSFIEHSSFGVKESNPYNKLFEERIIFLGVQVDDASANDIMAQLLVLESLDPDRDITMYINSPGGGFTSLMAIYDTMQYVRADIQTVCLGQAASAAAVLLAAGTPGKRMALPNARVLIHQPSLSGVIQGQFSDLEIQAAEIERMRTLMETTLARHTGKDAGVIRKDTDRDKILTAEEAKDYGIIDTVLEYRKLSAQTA
UniProt A4I591, 1-473: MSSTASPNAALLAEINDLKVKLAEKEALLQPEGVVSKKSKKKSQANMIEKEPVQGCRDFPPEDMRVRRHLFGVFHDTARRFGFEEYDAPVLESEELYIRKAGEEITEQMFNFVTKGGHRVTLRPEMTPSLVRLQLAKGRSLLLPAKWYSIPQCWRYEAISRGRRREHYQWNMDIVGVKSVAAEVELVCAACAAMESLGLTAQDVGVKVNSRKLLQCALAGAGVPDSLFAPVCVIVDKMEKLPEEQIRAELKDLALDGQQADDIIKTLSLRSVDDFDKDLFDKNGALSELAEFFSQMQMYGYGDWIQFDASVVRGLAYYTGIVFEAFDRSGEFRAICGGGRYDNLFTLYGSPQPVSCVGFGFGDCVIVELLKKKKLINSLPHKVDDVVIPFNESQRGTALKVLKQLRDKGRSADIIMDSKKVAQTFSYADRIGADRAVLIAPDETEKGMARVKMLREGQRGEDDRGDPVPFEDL
UniProt Q4DA54, 1-478: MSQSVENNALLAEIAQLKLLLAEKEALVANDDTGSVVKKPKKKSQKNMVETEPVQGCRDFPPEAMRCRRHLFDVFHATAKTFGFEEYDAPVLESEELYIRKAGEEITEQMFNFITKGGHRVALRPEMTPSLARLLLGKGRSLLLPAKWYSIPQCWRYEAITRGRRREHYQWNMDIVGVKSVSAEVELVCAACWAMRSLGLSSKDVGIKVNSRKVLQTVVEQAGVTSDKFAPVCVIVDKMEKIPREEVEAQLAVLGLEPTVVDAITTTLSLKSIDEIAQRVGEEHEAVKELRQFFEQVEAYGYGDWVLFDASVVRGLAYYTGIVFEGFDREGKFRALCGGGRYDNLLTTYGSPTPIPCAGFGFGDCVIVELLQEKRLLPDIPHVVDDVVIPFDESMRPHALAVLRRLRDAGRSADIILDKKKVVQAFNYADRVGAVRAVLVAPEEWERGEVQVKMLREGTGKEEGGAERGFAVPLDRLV

CoaBC: 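Coenzyme A biosynthesis protein CoaBC, Mycobacterium tuberculosis (UniProt P9WNZ1). Enzyme assay of CoaBC with a phosphate dye (Biomol Green) read at 650 nm. Compounds at 30 µM. Higher reads as stronger inhibition, judged from the few compounds that gave an IC50. Most strong results did not repeat in a second test. About 67,000 compounds were tested under these conditions; 0.06% (about 40) showed 50% or more at least once.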
MtTrpRS: 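Enzyme assay of tryptophanyl-tRNA synthetase; the read-out is not stated. Target: Tryptophan-tRNA ligase, Mycobacterium tuberculosis (UniProt P9WFT3). Tested at 10 µM. Higher most likely means stronger inhibition; the record gives no direction and few retests gave an IC50. Size under these conditions: about 65,000 compounds, about 64 of them at 50% or above in at least one test.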
ClpP1P2: 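Protease assay of ClpP1P2, read by the AMC dye that it sets free. Target: ClpP1P2, Mycobacterium tuberculosis (UniProt P9WPC5 and UniProt P9WPC3). Tested at 50 µM. Direction is inferred from only a few compounds that gave an IC50; most scored high, so higher reads as stronger inhibition. Most other retested compounds had strongly negative values. About 69,000 compounds were tested under these conditions; 0.015% (about 10) showed 50% or more at least once.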
LiHisRS: 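Histidine-tRNA ligase, Leishmania infantum (UniProt A4I591). Enzyme assay of histidyl-tRNA synthetase; the read-out is not stated. Tested at 30 µM. Direction is inferred from retests: higher values go with stronger inhibition. The assay is labelled LdHisRS but filed under L. infantum. Size under these conditions: about 69,000 compounds, about 410 of them at 50% or above in at least one test.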
TcHisRS: 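Enzyme assay of histidyl-tRNA synthetase; the read-out is not stated. Target: Histidine-tRNA ligase, Trypanosoma cruzi CL Brener (UniProt Q4DA54). Concentration: 30 µM. Higher reads as stronger inhibition (inferred: compounds with an IC50 in retests scored well above the rest). Size under these conditions: about 69,000 compounds, about 31 of them at 50% or above in at least one test.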

Results are given as percent effect.
The controls that fix the scale are not given in the record; negative values are as filed.
Compounds were drawn at random from those tested, without regard to their results.
A dash means the value is not listed here; it may have been measured.

Compound,CoaBC,MtTrpRS,ClpP1P2,LiHisRS,TcHisRS
CC(=O)N1[C@H](Cn2cncn2)C[C@@H]2CN(Cc3cccnc3)CC[C@@H]21,-1.613%,-3.996%,-5.071%,13.89%,5.473%
COCc1cccc(NC(=O)NCCCN(C)S(C)(=O)=O)c1,3.949%,-4.806%,-0.5424%,7.254%,4.972%
CO[C@@H]1CC[C@H]2[C@H]1OCCN2C(=O)C1CCOCC1,1.003%,2.49%,-7.793%,23.08%,4.878%
CC1c2ncc(Cn3cncn3)n2CCN1C(=O)c1ccccn1 (stereo not shown),-8.261%,21.9%,-2.421%,6.944%,7.619%
Cc1ccc2c(n1)N(C)CCN(C(=O)NC1CC1)C2,3.426%,5.561%,-0.01056%,-3.774%,1.622%
Cc1cnn(CC2CN(CC(=O)NCCc3cccs3)CCO2)c1 (stereo not shown),4.563%,1.267%,5.957%,6.757%,4.151%
Cc1cc(N(C)C)nc(C2(C)CCCN2CC(N)=O)n1 (stereo not shown),4.545%,4.557%,-13.86%,2.878%,1.149%
COc1ccc(N2Cc3nc(=O)[nH]n3C2=O)cc1,-3.64%,13.67%,4.959%,0%,5.682%
COc1ccc(C2(C(=O)N3CC(c4cccnc4)C3)CC2(C)C)cc1 (stereo not shown),2.58%,-0.9031%,-6.327%,18.6%,15.48%
Cc1noc(C[C@@H]2COC[C@H]3CN(S(C)(=O)=O)C[C@@H]23)n1,8.333%,2.468%,6.329%,21.37%,5.882%
CCn1cc(C(=O)NCc2csc(C3CC3)n2)c(C)n1,8.333%,-0.2427%,7.847%,16.85%,7.772%
O=C(NCc1ccccc1CN1CCCCC1)Nc1nncs1,-6.483%,0.1037%,1.713%,20.18%,13.79%
CCN1CC(C(=O)NCCOc2ccc3c(c2)OCO3)CC1=O (stereo not shown),6.258%,-5.796%,-19.61%,11.61%,4.046%
CC/N=c1\nc(NCC)nc2n1C(O)(Nc1cccc(Cl)c1Cl)CS2 (stereo not shown),0%,-0.8223%,6.348%,13.04%,13%
COc1cccc2c1CCN(C(=O)NCCc1nccn1C)C2,-10.43%,-2.987%,4.363%,7.853%,10.16%
O=c1oc(-c2ccc(F)cc2)nn1CC1CCOC1 (stereo not shown),7.674%,2.863%,-8.085%,20.43%,12.5%
CCN(C)CC1CCN(S(=O)(=O)c2cc(C)c(F)cc2Cl)C1 (stereo not shown),-1.739%,-0.9909%,-6.36%,6.349%,4.615%
O=C(N1CCCC1)N1CCC2(CC1)CN(c1cccnc1)C(=O)CO2,2.222%,-,-9.778%,-0.9091%,-1.058%
CC(C)N1CC(c2ccnc(Nc3nccs3)n2)C1,1.211%,-4.112%,-20.6%,13.99%,0.565%
NC(=O)c1nc(COc2ccc3c(c2)OCO3)no1,2.288%,-11.86%,-1.631%,11.65%,-0.5464%
CCN(CC)CC1CN(Cc2cccc(C#N)c2)Cc2nccn2C1 (stereo not shown),4.362%,2.532%,3.186%,26.6%,12.06%
CN(C)Cc1cc(-c2nccn2CCn2cccn2)ccc1O,-3.629%,-3.015%,-3.442%,-2.632%,5.028%
COc1cc(CNC(=O)c2csc(Br)c2)ccn1,-1.739%,3.633%,-3.021%,15.87%,-0.5128%
CCn1cnnc1CNC(=O)NCC(C(C)C)N1CCOCC1 (stereo not shown),6.646%,6.308%,1.699%,19.48%,-5.419%
NC(=O)CCN(C(=O)CSc1ccc(F)cc1)c1ccc(F)cc1,-0.489%,-6.813%,7.616%,-1.613%,-1.031%
CC(=O)NCCNC(=O)Nc1cc(C(C)(C)C)sc1C#N,-6.762%,2.166%,-4.081%,15.71%,6.383%
Cc1ccccc1C(=O)N1C[C@@H]2C[C@@H](C)O[C@@H]2C1,-,1.26%,2.004%,18.8%,6.135%
COCCO[C@@H]1CCN(C(=O)c2ccnnc2)[C@H]1Cc1cnn(C)c1,1.665%,-1.928%,-7.385%,17.28%,1.84%
Cc1ccc(C2CN(CCCS(=O)(=O)C(C)C)CCO2)c(C)c1 (stereo not shown),-1.151%,-6.004%,-13.27%,2.083%,2.083%
CN(C)c1cc(N(C)Cc2cc(C(C)(C)C)n[nH]2)ncn1,7.239%,-4.194%,-5.465%,13.73%,9.877%
Cc1nc(CNC(=O)NC2CC(C)(C)OC2(C)C)sc1C (stereo not shown),2.686%,-4.941%,-6.555%,0%,6.349%
O=c1[nH]nc2c(N3CCC(NC4CCOCC4)CC3)nccn12,-8.421%,-0.605%,17.68%,13.79%,5.325%
CC(=O)NCC(=O)N1CCOC2(CCCN(c3ccc(C)nn3)C2)C1 (stereo not shown),4.471%,-5.97%,-4.347%,17.43%,5.288%
COc1cccc(C(=O)N2CCc3nc(C4CCCN4)ncc3C2)c1 (stereo not shown),-1.217%,-4.116%,1.989%,20%,17.16%
Cc1cc(N2CCCC(O)(CN(C)C)C2)c2cc3c(cc2n1)OCO3 (stereo not shown),-0.2554%,-1.854%,-5.195%,2.597%,4.848%
N#Cc1cccc(S(=O)(=O)NC(=O)COc2ccc3c(c2)CCC3)c1,1.813%,2.004%,7.112%,21.28%,-3.053%
Cc1c(F)cc(C(=O)O)cc1S(=O)(=O)Nc1cccc(C(F)F)c1,-1.813%,1.262%,4.692%,4.255%,0%
CCC(C)NC(=O)Nc1ccc(CN2CCOC2=O)cc1 (stereo not shown),-6.329%,2.464%,0.1952%,4.808%,5.691%
O=C1[C@H]2CC[C@H](CN(C3CSCCSC3)C2)N1Cc1cscn1,1.505%,-2.714%,2.253%,11.43%,5.785%
Cc1nc(CN2C[C@@H]3CN(C(=O)[C@H]4CCCO4)C[C@@H]3C2=O)cs1,4.569%,-7.984%,-9.864%,8.824%,0%
COCC1c2nnn(C)c2CCN1C(=O)Cc1ccccn1 (stereo not shown),2.228%,-,-4.603%,6.306%,3.315%
CCOc1ccc(CNC2CCCN(c3cccnn3)C2)cc1OC (stereo not shown),1.98%,-3.527%,-5.291%,12%,4.819%
Cc1ncnc2c1CCN(C(=O)N(C)C)CC2,1.238%,-,11.38%,9.91%,1.105%